From US20230022032A1, “uPAR-TARGETED PHOTOTHERMAL OPTICAL PROBES FOR PHOTOTHERMAL THERAPY” (RIGSHOSPITALET, priority 2019, published 2023)
Some results were stated once for a whole list of compounds, not compound by compound.

Assay: In vitro heating of solutions under NIR laser irradiation (FLIR thermal camera)
Format: physicochemical
Settings: 46 nmol; NIR laser 2 W/cm^2; five minutes irradiation
Method: The ability of ICG to generate high temperatures when irradiated with NIR light was measured in vitro. Different concentrations (228, 46, 23 and 12 nmol) of unconjugated ICG and ICG-Glu-Glu-AE105 in solution (0.2 g/ml (2-hydroxypropyl)-β-cyclodextrin in water and DMSO) were placed in a plastic cuvette under the laser beam. The laser was turned on for five minutes at 2 W/cm2 and the temperature measured with a thermal camera (FLIR T-440 camera), taking images every 30 seconds. The images were analyzed using the FLIR tools software.
In order to test the ability of ICG-Glu-Glu-AE105 to heat under NIR light, different concentrations of the compound in solution were placed in a plastic cuvette under a laser, at an intensity of 2 W/cm^2. The samples were then irradiated for ten minutes and the temperatures detected with a FLIR camera. For the highest concentration tested, 0.5 mg/ml, temperature increased fast in the first minutes and slower and in a more steady way after that, reaching a maximum temperature of 70.8±3° C. after ten minutes of irradiation. […]
5 minutes irradiation trials were also made with reference to testing the ability of ICG-Glu-Glu-AE105 to heat under NIR light. […] In this case the samples were irradiated for five minutes and the maximum temperatures were recorded with a FLIR camera. […]

Row | SMILES | maximum temperature in solution
1 | CC1(C)C(/C=C/C=C/C=C/C=C2\N(CCCCS(=O)(=O)O)c3ccc4ccccc4c3C2(C)C)=[N+](CCCCS(=O)(=O)[O-])c2ccc3ccccc3c21 [ICG, indocyanine green] | up to 60 °C
2 | CC(C)C[C@H](NC(=O)[C@H](Cc1ccc(O)cc1)NC(=O)C(CCCNC(=N)N)NC(=O)C(CO)NC(=O)C(Cc1ccccc1)NC(=O)[C@H](CC1CCCCC1)NC(=O)C(CC(=O)O)NC(=O)C(CCC(=O)O)NC(=O)C(CCC(=O)O)NC(=O)CCCCCN1\C(=C/C=C/C=C/C=C/C2=[N+](CCCCS(=O)(=O)[O-])c3ccc4ccccc4c3C2(C)C)C(C)(C)c2c1ccc1ccccc21)C(=O)N[C@@H](Cc1c[nH]c2ccccc12)C(=O)N[C@@H](CO)C(=O)O (stereo partly drawn) [ICG-Glu-Glu-AE105] | up to 60 °C
